Experimental data taken from publication PMC8667778.
Results are given in words; binding and its absence hold for the method and conditions named. Binding seen in cells or lysates may run through a third protein. Some entries that bind do so weakly or less than the wild type.

The chains behind the UniProt entries cited, without tags or fusion partners. Residues count along the entry.
UniProt P20029, residues 20-655: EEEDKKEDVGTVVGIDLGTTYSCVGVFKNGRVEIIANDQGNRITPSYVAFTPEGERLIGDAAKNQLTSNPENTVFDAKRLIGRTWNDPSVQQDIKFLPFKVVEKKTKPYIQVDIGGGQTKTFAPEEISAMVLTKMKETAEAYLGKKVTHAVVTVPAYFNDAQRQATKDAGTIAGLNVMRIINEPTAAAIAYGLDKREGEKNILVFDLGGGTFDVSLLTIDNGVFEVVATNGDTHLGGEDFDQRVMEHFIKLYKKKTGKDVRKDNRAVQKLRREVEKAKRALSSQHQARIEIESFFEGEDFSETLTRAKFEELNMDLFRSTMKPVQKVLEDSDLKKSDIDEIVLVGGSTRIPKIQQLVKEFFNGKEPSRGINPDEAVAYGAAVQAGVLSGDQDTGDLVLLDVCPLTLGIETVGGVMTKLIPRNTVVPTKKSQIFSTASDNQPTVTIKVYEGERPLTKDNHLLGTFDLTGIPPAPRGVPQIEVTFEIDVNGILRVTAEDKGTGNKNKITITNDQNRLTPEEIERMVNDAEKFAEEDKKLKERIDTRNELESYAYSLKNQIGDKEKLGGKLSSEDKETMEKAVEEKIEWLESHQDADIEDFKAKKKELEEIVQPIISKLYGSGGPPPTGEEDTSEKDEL
UniProt Q91VN0, residues 31-1614: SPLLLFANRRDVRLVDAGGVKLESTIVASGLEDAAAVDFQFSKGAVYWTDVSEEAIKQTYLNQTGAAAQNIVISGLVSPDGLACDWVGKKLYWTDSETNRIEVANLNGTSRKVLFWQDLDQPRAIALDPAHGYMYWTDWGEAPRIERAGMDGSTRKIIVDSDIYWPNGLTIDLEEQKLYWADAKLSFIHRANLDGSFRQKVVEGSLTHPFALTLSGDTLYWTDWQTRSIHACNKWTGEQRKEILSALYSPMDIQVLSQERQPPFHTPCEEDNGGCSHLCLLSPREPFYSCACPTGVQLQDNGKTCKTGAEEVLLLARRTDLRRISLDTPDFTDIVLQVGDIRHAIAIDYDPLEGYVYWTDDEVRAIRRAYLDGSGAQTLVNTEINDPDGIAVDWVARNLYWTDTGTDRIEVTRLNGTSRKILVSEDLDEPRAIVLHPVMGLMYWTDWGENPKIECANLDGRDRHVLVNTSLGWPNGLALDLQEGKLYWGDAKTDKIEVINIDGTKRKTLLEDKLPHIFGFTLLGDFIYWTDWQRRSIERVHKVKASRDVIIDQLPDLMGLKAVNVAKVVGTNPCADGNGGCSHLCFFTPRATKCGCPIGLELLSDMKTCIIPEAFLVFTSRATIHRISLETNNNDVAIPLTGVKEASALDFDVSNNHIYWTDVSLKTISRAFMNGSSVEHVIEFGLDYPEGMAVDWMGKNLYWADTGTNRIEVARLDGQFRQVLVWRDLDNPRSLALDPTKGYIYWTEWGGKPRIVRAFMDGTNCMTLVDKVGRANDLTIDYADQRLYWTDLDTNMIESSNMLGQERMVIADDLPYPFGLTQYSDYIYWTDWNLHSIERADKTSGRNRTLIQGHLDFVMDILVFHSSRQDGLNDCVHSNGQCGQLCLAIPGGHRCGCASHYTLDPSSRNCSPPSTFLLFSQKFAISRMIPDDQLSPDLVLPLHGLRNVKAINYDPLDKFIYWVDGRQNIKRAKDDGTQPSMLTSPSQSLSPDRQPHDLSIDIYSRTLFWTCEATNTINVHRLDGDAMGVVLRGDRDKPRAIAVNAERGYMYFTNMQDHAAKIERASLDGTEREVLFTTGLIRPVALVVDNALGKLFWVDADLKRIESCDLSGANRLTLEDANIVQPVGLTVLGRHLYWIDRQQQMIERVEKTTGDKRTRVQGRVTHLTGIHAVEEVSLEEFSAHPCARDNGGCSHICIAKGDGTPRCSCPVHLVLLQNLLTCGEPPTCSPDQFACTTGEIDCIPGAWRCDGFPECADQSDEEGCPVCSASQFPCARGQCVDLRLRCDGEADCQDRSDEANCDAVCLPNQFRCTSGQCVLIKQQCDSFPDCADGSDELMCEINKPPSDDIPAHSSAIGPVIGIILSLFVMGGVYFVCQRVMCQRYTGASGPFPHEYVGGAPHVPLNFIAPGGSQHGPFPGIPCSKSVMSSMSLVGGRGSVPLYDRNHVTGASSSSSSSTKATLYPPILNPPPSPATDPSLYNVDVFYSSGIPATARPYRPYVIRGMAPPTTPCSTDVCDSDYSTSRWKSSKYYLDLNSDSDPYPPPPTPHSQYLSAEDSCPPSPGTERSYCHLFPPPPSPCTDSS

Target: GRP78 (mouse (endogenous in 4T1)) (UniProt P20029)
Test: co-IP; Pierce Co-Immunoprecipitation Kit; GRP78 antibody immobilised on resin, incubated with 4T1 cell lysates, LRP5 detected by immunoblotting; quenched antibody coupling resin as negative control; cells treated with cortisol and with SNS (200 μg/ml) for 24 h

LRP5 (from UniProt Q91VN0 31-1614) (receptor)
binding: binds
